## Library screen at single concentrations

Mtb cholesterol medium: 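Growth of Mycobacterium tuberculosis over 4 days (cholesterol / DPPC medium with tyloxapol); the read-out is not stated. Concentration: 50 µM. Higher reads as more growth inhibition (inferred: compounds with an IC50 in retests scored well above the rest). About 69,000 compounds were tested under these conditions; 0.54% (about 370) showed 50% or more at least once.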
Mtb glucose medium: 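Phenotypic screen: M. tuberculosis growth, glucose 7H9 medium, 3 days; the read-out is not stated. Concentration: 50 µM. Direction is inferred from retests: higher values go with more growth inhibition. About 69,000 compounds were tested under these conditions; 1.1% (about 760) showed 50% or more at least once.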

Results are given as percent effect.
The record does not define 0% and 100%; most values in the screen are far below 50% and negative numbers occur (in some assays of this library far below -100).
The compounds are a random part of those screened.
Two or more numbers in one place are separate tests of the same structure; such repeats can differ widely.

compound: c1cc(CN2CCC[C@@H](Cn3nnc(-c4cnccn4)n3)C2)ccn1
Mtb cholesterol medium: -15.72 and -15.82
Mtb glucose medium: -21.85

compound: Cc1nc(NCc2nncn2C2CC2)c2c(CC(C)C)csc2n1
Mtb cholesterol medium: -40.46
Mtb glucose medium: 35.46

compound: CC(C)n1ccnc1CN1CCCN(C(=O)c2cnc[nH]2)CC1
Mtb cholesterol medium: -3.752
Mtb glucose medium: -5.81

compound: Cc1cnn(CCNCc2ccc(S(C)(=O)=O)cc2)c1
Mtb cholesterol medium: -13.85
Mtb glucose medium: -13.26

compound: CC(C)(C)c1cnc(CN2CCC(NC(=O)C3CCOCC3)CC2)o1
Mtb cholesterol medium: -9.885
Mtb glucose medium: -14.27

compound: Fc1cccc(-c2nnn3c2COC(CNc2ncccn2)C3)c1 (centres unmarked)
Mtb cholesterol medium: -27.09 and -20.87
Mtb glucose medium: -24.79

compound: O=C(O)C(F)(F)F.[H][C@@]12CCCO[C@]1([H])[C@H](NC(=O)c1nccn1C)CN2Cc1ccc(F)cc1
Mtb cholesterol medium: 10.62
Mtb glucose medium: 0.8488

compound: Cc1ccc(C(=O)N2CCN(CCc3ccccc3)CC2)c(=O)[nH]1
Mtb cholesterol medium: -20.9
Mtb glucose medium: -26.12

compound: O=C(Cn1ccc2ccccc21)Nc1cc(N2CCOCC2)ncn1
Mtb cholesterol medium: -12.93
Mtb glucose medium: -21.34 and 0.1107

compound: COCCNc1nc2c(c(NCc3cnc(C)cn3)n1)CCNCC2
Mtb cholesterol medium: 13.3 and 27.77
Mtb glucose medium: 11.38

compound: CC(C)OCCN1CCN(C(C)c2nc(C3CC3)no2)CC1 (centres unmarked)
Mtb cholesterol medium: -5.33
Mtb glucose medium: -34.42

compound: CCn1nc(C)c(CN(Cc2ccccn2)Cc2ccccc2Cl)c1C
Mtb cholesterol medium: -10.68
Mtb glucose medium: -18.45

compound: O=C(Cc1ccccc1O)Nc1ccc(N2CCCC2)nc1
Mtb cholesterol medium: 2.329
Mtb glucose medium: 9.999

compound: COc1cc(CN(C)[C@@H]2COC[C@H]2c2ccc(F)cc2)cc(OC)c1.O=C(O)CC(O)(CC(=O)O)C(=O)O
Mtb cholesterol medium: -3.109 and -4.575
Mtb glucose medium: 18.15

compound: O=c1cc(CN2CCCC2)nc2n1CCCN(Cc1ccco1)C2
Mtb cholesterol medium: -8.126
Mtb glucose medium: -10.88 and 1.553

compound: O=C(O)C(F)(F)F.[H][C@@]12CN(C(=O)c3ccncc3F)C[C@]1([H])OCCN2CCOC
Mtb cholesterol medium: -4.389
Mtb glucose medium: -23.8 and -0.2767

compound: COC(=O)CNC(=O)N1CCN(c2nc3ccccc3n2C)CC1
Mtb cholesterol medium: -4.492
Mtb glucose medium: -1.819

compound: CNC(=O)C1CCCCN1C(=O)c1n[nH]c(=O)c2ccccc12 (centres unmarked)
Mtb cholesterol medium: -11.23
Mtb glucose medium: -2.583

compound: CCC(Nc1nc(C2CCCC2)nc2c1cnn2C)c1ccncc1 (centres unmarked)
Mtb cholesterol medium: -20.02
Mtb glucose medium: -1.359

compound: O=C1NCCCCC1NC(=O)C1(Oc2ccc(Cl)cc2)CCNCC1 (centres unmarked)
Mtb cholesterol medium: -11.73
Mtb glucose medium: 4.476

compound: O=S1(=O)COCCN1Cc1ccc(F)cc1Cl
Mtb cholesterol medium: -2.681
Mtb glucose medium: 1.299

compound: Cc1cccn2c(CC(=O)N3CCC(Oc4ncccn4)CC3)cnc12
Mtb cholesterol medium: -26.55
Mtb glucose medium: -60.02

compound: Cn1ccnc1C(=O)N1CCC2(CCN2CC2CC2)C1.O=C(O)C(F)(F)F (centres unmarked)
Mtb cholesterol medium: -34.43
Mtb glucose medium: 24.99 and 0.7018

compound: [H][C@@]12COC[C@]1(CNS(=O)(=O)CC)CN(Cc1cc(C)on1)C2
Mtb cholesterol medium: -7.267
Mtb glucose medium: 2.836

compound: N#CCCn1nc(C(F)(F)F)c2c1CCCC2
Mtb cholesterol medium: 7.7
Mtb glucose medium: 30.5

compound: CC(C)(CNC(=O)Nc1cccc(-c2cccs2)c1)C(N)=O
Mtb cholesterol medium: 16.34
Mtb glucose medium: 31.52

compound: CCc1nc(CN2CCCN(C(=O)CCc3ccco3)CC2)cs1
Mtb cholesterol medium: -1.746
Mtb glucose medium: -19.34

compound: CC1CN(C(=O)CN(Cc2ccccc2Br)C2CC2)CCO1 (centres unmarked)
Mtb cholesterol medium: -8.21
Mtb glucose medium: -4.673

compound: Cc1ccc(C)c2c(C)c(C(=O)NCCCn3cnnc3)[nH]c12
Mtb cholesterol medium: -13.13
Mtb glucose medium: -5.981

compound: CCN1CCN(c2ccc(F)cc2C(C)NCc2ccncc2)CC1 (centres unmarked)
Mtb cholesterol medium: 1.583
Mtb glucose medium: 11.45

compound: Cc1cc(CN2CCC(C3CCN(CC(C)C)CC3)C2)[nH]n1 (centres unmarked)
Mtb cholesterol medium: 16.91
Mtb glucose medium: -4.272

compound: [H][C@@]12CCC(=O)N(CCc3c[nH]cn3)[C@]1([H])CCN(Cc1cc(C)c(C)o1)C2
Mtb cholesterol medium: -4.104 and 0.4161
Mtb glucose medium: 16.59

compound: [H][C@@]12CCN(Cc3scnc3C)C[C@]1([H])OCCN(c1ccccc1)C2=O
Mtb cholesterol medium: -20.77
Mtb glucose medium: 18.62

compound: CCOc1ccc(NC(=O)N(C)Cc2cnn(C)c2)c(C)c1
Mtb cholesterol medium: -40.75
Mtb glucose medium: -21.03

compound: COc1ccc(NC(=O)C2CC(=O)n3cnnc3S2)cc1 (centres unmarked)
Mtb cholesterol medium: 5.58
Mtb glucose medium: 8.273 and 9.872

compound: CCc1noc(C(C)N2CCN(C)CC2)n1 (centres unmarked)
Mtb cholesterol medium: 13.83
Mtb glucose medium: -17.53

compound: Cn1nc(CNS(=O)(=O)Cc2ccccc2F)c2c1CCCC2
Mtb cholesterol medium: -13.6
Mtb glucose medium: 6.358 and -10.73

compound: O=C(NCc1cccc2cccnc12)N1CCC(n2cncn2)CC1
Mtb cholesterol medium: -17.98
Mtb glucose medium: -26.2

compound: COCc1noc(CN2C[C@H](NS(C)(=O)=O)[C@@H](C3CC3)C2)n1
Mtb cholesterol medium: 24.82
Mtb glucose medium: 1.549 and -1.833

The first 3 entries again:

With c1cc(CN2CCC[C@@H](Cn3nnc(-c4cnccn4)n3)C2)ccn1 the screen gave Mtb cholesterol medium: -15.72% and -15.82%; Mtb glucose medium: -21.85%.
With Cc1nc(NCc2nncn2C2CC2)c2c(CC(C)C)csc2n1 the screen gave Mtb cholesterol medium: -40.46%; Mtb glucose medium: 35.46%.
With CC(C)n1ccnc1CN1CCCN(C(=O)c2cnc[nH]2)CC1 the screen gave Mtb cholesterol medium: -3.752%; Mtb glucose medium: -5.81%.

Source: ChEMBL document CHEMBL3988442, “University of Dundee, Small-Polar-MMV Screening Library” (2021).